First the molecules themselves.
B1: OPF2 (protein, UniProt Q5PNS0 1-482)
chain: MHYSQTSSFGGNHTEIAKIIHKFLQPRVKQYPLWNPPSREYMSRAMACQICEVTINEMDTLLICDACEKAYHLKCLQGNNMKGVPKSEWHCSRCVQAFNGKPFPPTYGRATRAVATTTAKMPFRAAGVLSSSAKKIGPMDIKANQQKPIVSTFSRLQNTGLVSGAATTSQFESASVNAKTTASAAKTTNIGSQGSKENVACGANSPAPVSLTETPNRTGIASTISVINNGLISKPLTPVGTMSSTSPLPVVNQLPVNATSNASPSTPITASLVAQAPTVTQNGDGSSTASGTADHSILNADITTQVHTLTVTSSSNSQQAVSHSEVAKATEDAAPLENVSECEKPSESTSHPDSLNDKTISENVQESSKDAKVDSEACQNHPTASPATVVPDQDSTITAAPSVTQEDSAFNTEKTPPQPLSVSSNYDSQTEKETPNVQDSVHNVPGDSEKGKGLNGLDDRHQEQPSEPEFYKSDSVKEENAA
B2: ARP4 (protein, UniProt Q84M92 1-441)
chain: MYGGDEVSAIVVDLGSHTCKAGYAGEDAPKAVFPSVIGAVDGVEAMDVDVDSTKTNSNSEDSKTESEKEKSKRKLYVGSQAMSYRRDHMEVLSPIKDGIVSDWDLVDNIWEHAFKSCLMIDPTEHPMLLAEPPLNTQQQREKAAELMFEKYKVPALFMAKNPVLTSFATGRATSLVVDCGGGSTTISPVHDGYVLQKAVVSSPLGGEFLTDCLLKSLESKGIKIRPRYSFKRKEVRAGEFQVEDVDIPDTTESYKLFCQRMIVGDIKDSICRVPDTPYDDKSYSNIPTTSYELPDGQTLEIGADRFKVPDVMFNPSIVQTIPGMEKYAEMIPSVRGLPHMVMESINKCDVDIRRELYSSILLAGGTSSMQQLKERLEKDLIEESPHSARVKVLASGNTTERRFSVWIGGSILASLGSFQQMWFSKSEYEEHGASYIQRKCP
B3: CHR23 (protein, UniProt F4K128 1-1064)
chain: MVKQLQEQEENDPVEKTKSLISALNYLSRDLLLPSHLYASVSSIYHASVSDLSPSPPLRGNSYTPNRGDLMSEFEDALLQQRLNYESGSRLAELKETRYKNRIHNRLSQLEGLPSNRGEDLQEKCLLELYGLKLQELQCRVRGEVSAEYWLRLNCADPERQLYDWGMMRLPRRMYGVGDSFVMEADDQFRNKRDAERLLRLEEEEKNLIETTQRKFFAEVLNAVREFQLQIQASHRRCKQRNDGVQAWHGKQRQRATRAEKLRIMALKSDDQEEYMKLAKESKNEKLTLFLEETNKIFVSLGAAVQRQKDAKLSENTKLLKGSESDLSDVDAPEDVLPAQDIEIIDSDNNDDSNDLLEGERQFNLAIHSIQEKVTKQPSLLQGGELRSYQLEGLQWMVSLYNNDYNGILADEMGLGKTIQTIALIAYLLESKDLHGPHLILAPKAVLPNWENEFALWAPSISAFLYDGSKEKRTEIRARIAGGKFNVLITHYDLIMRDKAFLKKIDWNYMIVDEGHRLKNHECALAKTLGTGYRIKRRLLLTGTPIQNSLQELWSLLNFLLPHIFNSIHNFEEWFNTPFAECGSASLTDEEELLIINRLHHVIRPFLLRRKKSEVEKFLPGKTQVILKCDMSAWQKLYYKQVTDVGRVGLHSGNGKSKSLQNLTMQLRKCCNHPYLFVGADYNMCKKPEIVRASGKFELLDRLLPKLKKAGHRILLFSQMTRLIDLLEIYLSLNDYMYLRLDGSTKTDQRGILLKQFNEPDSPYFMFLLSTRAGGLGLNLQTADTIIIFDSDWNPQMDQQAEDRAHRIGQKKEVRVFVLVSIGSIEEVILERAKQKMGIDAKVIQAGLFNTTSTAQDRREMLEEIMSKGTSSLGEDVPSEREINRLAARTEEEFWMFEQMDEERRKKENYKTRLMEEKEVPEWAYTSETQEDKTNAKNHFGSLTGKRKRKEAVYSDSLSDLQWMKAMESEDEDASKVSQKRKRTDTKTRMSNGSKAEAVLSESDEEKEEEEEERKEESGKESEEENEKPLHSWKTNKKKRSRYPVMTSSPNSRGKGSSKGSKRN

These are yes or no findings as the source states them, for the method shown. Binding seen in cells or lysates may run through a third protein. Here binding means that the protein was enriched with, or labelled near, the bait; the list need not be complete. For part of these data: No binding means not detected with the bait. Sequences can lack the tags named with a protein.

One assay has as its target T1, SHH2-3xFLAG (A. thaliana) (UniProt Q8RWJ7).
T1 sequence: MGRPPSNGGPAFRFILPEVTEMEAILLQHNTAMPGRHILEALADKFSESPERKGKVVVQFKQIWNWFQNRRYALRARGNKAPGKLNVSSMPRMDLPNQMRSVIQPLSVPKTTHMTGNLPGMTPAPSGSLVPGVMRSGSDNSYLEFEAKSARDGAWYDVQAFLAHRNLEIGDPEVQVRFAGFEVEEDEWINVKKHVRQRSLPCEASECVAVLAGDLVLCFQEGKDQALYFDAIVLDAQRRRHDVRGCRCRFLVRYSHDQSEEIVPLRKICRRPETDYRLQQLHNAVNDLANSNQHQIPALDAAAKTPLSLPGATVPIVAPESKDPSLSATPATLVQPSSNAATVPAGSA
Nature of the assay: affinity purification with mass spectrometry; anti-FLAG M2 magnetic beads on extracts of 8 g inflorescences of TPF1-3xFLAG or SHH2-3xFLAG transgenic A. thaliana lines, Col-0 as control; IP buffer 50 mM Tris pH 7.6, 150 mM NaCl, 5 mM MgCl2, 10% glycerol, 0.1% NP40; 3 h at 4 °C; eluted with 3xFLAG peptide; LC-MS/MS, LFQ by MaxQuant; two independent experiments with two lines each.
B1: the binding entry is recorded as “binds”.
As for B2, the binding result was “binds”.
Take B3: the binding entry is “binds”.

The target of a further assay is T2, TPF1-3xFLAG (A. thaliana) (UniProt F4J5R1).
T2 sequence: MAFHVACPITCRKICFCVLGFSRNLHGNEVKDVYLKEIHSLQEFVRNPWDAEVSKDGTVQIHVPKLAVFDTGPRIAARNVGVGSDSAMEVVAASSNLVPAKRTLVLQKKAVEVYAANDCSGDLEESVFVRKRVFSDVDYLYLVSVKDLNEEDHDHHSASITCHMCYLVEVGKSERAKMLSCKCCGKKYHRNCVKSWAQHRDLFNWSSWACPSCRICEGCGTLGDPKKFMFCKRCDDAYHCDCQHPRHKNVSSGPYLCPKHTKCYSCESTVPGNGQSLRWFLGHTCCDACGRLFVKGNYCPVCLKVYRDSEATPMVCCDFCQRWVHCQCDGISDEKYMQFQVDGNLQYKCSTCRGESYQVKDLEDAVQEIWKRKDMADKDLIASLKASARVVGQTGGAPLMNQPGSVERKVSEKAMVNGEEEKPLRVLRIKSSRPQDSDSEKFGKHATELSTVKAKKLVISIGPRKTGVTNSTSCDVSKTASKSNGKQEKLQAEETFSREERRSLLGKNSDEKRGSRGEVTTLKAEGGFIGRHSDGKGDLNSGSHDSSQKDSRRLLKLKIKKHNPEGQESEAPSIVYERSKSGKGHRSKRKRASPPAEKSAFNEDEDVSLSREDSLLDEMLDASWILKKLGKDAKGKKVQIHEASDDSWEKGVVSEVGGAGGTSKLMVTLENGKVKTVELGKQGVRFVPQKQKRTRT
Described as above.
Turning to B1, the binding entry is reported as “no binding”.
Consider B2, for which the binding result is reported as “binds”.
Regarding B3, the binding result is listed as “no binding”.

The record behind these values is article PMC9170682.
